PubChem BioAssay AID1259288 – Sanger Institute | 2017
In all, the deposit lists 160 reagents; below is a random part of them. 7 of them (4.4%) were called active. 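Active calls arise only from BYL719 or trametinib; no cetuximab synergy went beyond 0.10; drug doses chosen to have mild effect alone.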 The numbers tell different reagents against one gene apart. Further read-outs or replicates are left out here. The record does not give: the amount of reagent, the time to read-out.

- Aim: 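Verify that silencing candidate genes makes colorectal cancer cells more drug sensitive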 (follow-up of hits with single siRNAs)
- Cells: HT29 human colorectal cancer cells
- Reagent: single siRNA against human genes
- Conditions: anchor drugs BYL719 (1 µM), cetuximab (5 µg/ml) or trametinib (10 nM), or DMSO vehicle; each drug dosed to cause only modest loss of viability on its own
- Measurement: 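Synergy score comparing combined siRNA and drug against siRNA alone and drug alone, and viability averaged over replicates and normalised to control pool 2 (non-targeting)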
- Direction: synergy score with BYL719 and synergy score with trametinib and synergy score with cetuximab: higher = stronger combined killing than expected from each alone
- Call rule: 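Hit when synergy for any of BYL719, cetuximab and trametinib exceeds 0.10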

no.	target gene	reagent	synergy score with BYL719	synergy score with trametinib	synergy score with cetuximab	Outcome
1	MPP3 (MAGUK p55 scaffold protein 3)	1	-0.225	-0.0435	-0.125	inactive
2	MPP3 (MAGUK p55 scaffold protein 3)	2	-0.107	0.00599	-0.155	inactive
3	MPP3 (MAGUK p55 scaffold protein 3)	3	-0.187	0.101	-0.135	active
4	MPP3 (MAGUK p55 scaffold protein 3)	4	-0.0992	0.0439	-0.0199	inactive
5	BMPR2 (bone morphogenetic protein receptor type 2)	1	-0.144	-0.0997	-0.0728	inactive
6	BMPR2 (bone morphogenetic protein receptor type 2)	2	-0.0802	-0.0511	-0.19	inactive
7	BMPR2 (bone morphogenetic protein receptor type 2)	3	-0.204	-0.111	-0.0727	inactive
8	BMPR2 (bone morphogenetic protein receptor type 2)	4	-0.108	-0.0717	0	inactive
9	PAK1 (p21 (RAC1) activated kinase 1)	1	-0.0815	0.0254	-0.153	inactive
10	PAK1 (p21 (RAC1) activated kinase 1)	2	-0.209	0.00917	-0.206	inactive
11	PAK1 (p21 (RAC1) activated kinase 1)	3	-0.0219	0.0266	-0.108	inactive
12	PAK1 (p21 (RAC1) activated kinase 1)	4	-0.23	-0.0389	-0.171	inactive
13	EPHA6 (EPH receptor A6)	1	-0.184	0.0367	-0.0849	inactive
14	EPHA6 (EPH receptor A6)	2	-0.0724	-0.0101	-0.266	inactive
15	EPHA6 (EPH receptor A6)	3	-0.0949	-0.0597	-0.165	inactive
16	EPHA6 (EPH receptor A6)	4	-0.215	-0.104	-0.194	inactive
17	IRAK1 (interleukin 1 receptor associated kinase 1)	1	-0.05	-0.0296	-0.0897	inactive
18	IRAK1 (interleukin 1 receptor associated kinase 1)	2	-0.00564	0.00166	0	inactive
19	IRAK1 (interleukin 1 receptor associated kinase 1)	3	0.121	-0.0115	0.0039	active
20	IRAK1 (interleukin 1 receptor associated kinase 1)	4	0.0249	-0.00933	0.0984	inactive
21	SYNCRIP (synaptotagmin binding cytoplasmic RNA interacting protein)	1	-0.112	-0.0161	-0.192	inactive
22	SYNCRIP (synaptotagmin binding cytoplasmic RNA interacting protein)	2	-0.153	-0.0207	-0.0327	inactive
23	SYNCRIP (synaptotagmin binding cytoplasmic RNA interacting protein)	3	-0.108	0.0138	-0.248	inactive
24	SYNCRIP (synaptotagmin binding cytoplasmic RNA interacting protein)	4	-0.156	-0.0889	-0.0935	inactive
25	PINK1 (PTEN induced kinase 1)	1	-0.2	-0.0595	-0.158	inactive
26	PINK1 (PTEN induced kinase 1)	2	-0.0681	0.0192	-0.0555	inactive
27	PINK1 (PTEN induced kinase 1)	3	-0.0476	-0.0496	-0.203	inactive
28	PINK1 (PTEN induced kinase 1)	4	-0.0617	0.0696	0.0728	inactive
29	GTF2H1 (general transcription factor IIH subunit 1)	1	-0.123	-0.0191	0.0465	inactive
30	GTF2H1 (general transcription factor IIH subunit 1)	2	-0.289	-0.0382	0	inactive
31	GTF2H1 (general transcription factor IIH subunit 1)	3	-0.175	-0.0697	-0.00343	inactive
32	GTF2H1 (general transcription factor IIH subunit 1)	4	-0.0562	-0.042	-0.0557	inactive
33	PLK1 (polo like kinase 1)	1	-0.16	-0.0478	-0.0381	inactive
34	PLK1 (polo like kinase 1)	2	-0.188	-0.0869	-0.0812	inactive
35	PLK1 (polo like kinase 1)	3	-0.0904	-0.056	-0.0595	inactive
36	PLK1 (polo like kinase 1)	4	-0.116	-0.0801	-0.135	inactive
37	ACVR1 (activin A receptor type 1)	1	-0.219	-0.0927	-0.0455	inactive
38	ACVR1 (activin A receptor type 1)	2	0.0328	0.0221	-0.107	inactive
39	ACVR1 (activin A receptor type 1)	3	-0.134	-0.00194	0	inactive
40	ACVR1 (activin A receptor type 1)	4	-0.108	0.0114	0.0019	inactive
41	SF3B1 (splicing factor 3b subunit 1)	1	-0.0319	-0.0456	0.0309	inactive
42	SF3B1 (splicing factor 3b subunit 1)	2	-0.0341	-0.0578	-0.0701	inactive
43	SF3B1 (splicing factor 3b subunit 1)	3	0.0132	-0.0211	-0.000732	inactive
44	SF3B1 (splicing factor 3b subunit 1)	4	-0.118	-0.118	-0.127	inactive
45	COASY (Coenzyme A synthase)	1	-0.0452	-0.0112	-0.185	inactive
46	COASY (Coenzyme A synthase)	2	-0.0074	-0.0201	-0.0554	inactive
47	COASY (Coenzyme A synthase)	3	-0.0779	0.0119	-0.0552	inactive
48	COASY (Coenzyme A synthase)	4	0.0415	0.0206	0.0404	inactive
49	CAMK2N1 (calcium/calmodulin dependent protein kinase II inhibitor 1)	1	0.0696	-0.00326	0.0361	inactive
50	CAMK2N1 (calcium/calmodulin dependent protein kinase II inhibitor 1)	2	-0.039	-0.0469	-0.134	inactive
51	CAMK2N1 (calcium/calmodulin dependent protein kinase II inhibitor 1)	3	0.25	0.0399	-0.082	active
52	CAMK2N1 (calcium/calmodulin dependent protein kinase II inhibitor 1)	4	0.0313	-0.141	-0.0688	inactive
53	MAP3K8 (mitogen-activated protein kinase kinase kinase 8)	1	0.0511	-0.0923	-0.0641	inactive
54	MAP3K8 (mitogen-activated protein kinase kinase kinase 8)	2	0.0505	0.0619	-0.115	inactive
55	MAP3K8 (mitogen-activated protein kinase kinase kinase 8)	3	-0.117	-0.0865	-0.124	inactive
56	MAP3K8 (mitogen-activated protein kinase kinase kinase 8)	4	-0.13	-0.0714	-0.138	inactive
57	RPS6KA4 (ribosomal protein S6 kinase A4)	1	-0.0729	0.0315	-0.114	inactive
58	RPS6KA4 (ribosomal protein S6 kinase A4)	2	0.0487	0.0023	-0.173	inactive
59	RPS6KA4 (ribosomal protein S6 kinase A4)	3	-0.0232	-0.12	-0.0627	inactive
60	RPS6KA4 (ribosomal protein S6 kinase A4)	4	-0.159	0.0327	-0.31	inactive

8 of these entries, set out differently.
target gene,reagent,synergy score with BYL719,synergy score with trametinib,synergy score with cetuximab,Outcome
COASY (Coenzyme A synthase),3,-0.0779,0.0119,-0.0552,inactive
COASY (Coenzyme A synthase),4,0.0415,0.0206,0.0404,inactive
CAMK2N1 (calcium/calmodulin dependent protein kinase II inhibitor 1),1,0.0696,-0.00326,0.0361,inactive
CAMK2N1 (calcium/calmodulin dependent protein kinase II inhibitor 1),2,-0.039,-0.0469,-0.134,inactive
CAMK2N1 (calcium/calmodulin dependent protein kinase II inhibitor 1),3,0.25,0.0399,-0.082,active
CAMK2N1 (calcium/calmodulin dependent protein kinase II inhibitor 1),4,0.0313,-0.141,-0.0688,inactive
MAP3K8 (mitogen-activated protein kinase kinase kinase 8),1,0.0511,-0.0923,-0.0641,inactive
MAP3K8 (mitogen-activated protein kinase kinase kinase 8),2,0.0505,0.0619,-0.115,inactive
